Source: PubChem BioAssay AID504791 (Drosophila RNAi Screening Center, 2011)
The screen tested about 23,000 reagents; this is a random part of those with a known target gene and a result. Of all reagents, 199 (0.86%) got an active call. 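Plate-scaled ratios behind the calls are not deposited; printed light signals are raw; many rows marked increased or decreased are still called inactive.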 A plus sign joins genes that one reagent is predicted to hit. Reagent sequences are not shown.

Purpose: 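Factors in Argonaute-based small RNA production and activity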 (primary screen)
Cell system: Drosophila S2-derived reporter cells
Knock-down reagent: long dsRNA against Drosophila genes, about 150-250 ng dsRNA per well (siRNA assay); about 80-120 ng (miRNA assay)
Timing: about 5 days (siRNA assay); about 4 days (miRNA assay)
Treatment: copper sulfate induction of reporters: 25 µM (siRNA assay); 200 mM stated (miRNA assay), 1-2 days before reading
Measured: 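Dual luciferase assay: Renilla to firefly signal ratio in each well, scaled to the mean ratio of its plate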
Direction: siRNA reporter hit score: higher = 3 marks a strong hit with raised ratio; -3 a strong hit with lowered ratio
Call rule: 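a well was a first-pass pick when its plate-scaled ratio rose above 1.5 (siRNA assay) or 1.6 (miRNA assay), or dropped below 0.6; a gene counted only if two separate dsRNAs agreed on retest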

gene knocked down,dsRNA,siRNA reporter hit score,stable siRNA reporter change,miRNA reporter change,"stable assay Renilla, run 1 (luminescence)","stable assay firefly, run 1 (luminescence)",Call
CG17237,DRSC00491,,,,7258,3.88e5,inactive
CG15747,DRSC19713,,,,8083,4.30e5,inactive
fws,DRSC02969,,,,24915,2.35e6,inactive
Cpr65Az,DRSC09882,,,,8024,6.31e5,inactive
Cpr65Az,DRSC22057,,,,9250,5.62e5,inactive
Dhod,DRSC16647,,,,5731,3.43e5,inactive
lva,DRSC18403,,,,7019,4.74e5,inactive
smo,DRSC00837,,,,12035,5.72e5,inactive
CG16812,DRSC02519,,,,21481,1.13e6,inactive
CG14269,DRSC17912,,,,6223,3.34e5,inactive
htt,DRSC16970,,,,6880,3.54e5,inactive
sbr,DRSC19770,,,,5028,4.14e5,inactive
sbr,DRSC20368,,,reporter ratio lowered past the hit cutoff,5416,3.56e5,active
sbr,DRSC29803,,,reporter ratio lowered past the hit cutoff,,,active
CG12698,DRSC19485,,,,3720,3.62e5,inactive
JTBR,DRSC08667,,,,4907,3.28e5,inactive
CG43078,DRSC10292,,,,7972,5.09e5,inactive
CG43078,DRSC10608,,,,8575,5.28e5,inactive
CG43078,DRSC21541,,,,10490,4.24e5,inactive
CG43078,DRSC22327,,,,9409,6.22e5,inactive
Sfmbt,DRSC02552,,,,28367,5.01e5,inactive
CG14200,DRSC19555,,,,3992,2.66e5,inactive
CG14200,DRSC22979,,,,4928,4.11e5,inactive
CG33299,DRSC01085,,,,4975,4.23e5,inactive
hid,DRSC11316,,,,6796,3.90e5,inactive
ste24b,DRSC07315,,,,6634,3.19e5,inactive
C15,DRSC13495,,,,3624,3.83e5,inactive
C15,DRSC14169,,,,5856,2.94e5,inactive
Syt7,DRSC17130,,,,5795,3.72e5,inactive
Syt7,DRSC17159,,,,6099,4.18e5,inactive
MFS12,DRSC07268,,,,8115,4.98e5,inactive
RhoGEF3,DRSC08351,,,,6955,3.02e5,inactive
RhoGEF3,DRSC08352,,,,5979,3.18e5,inactive
CG32845,DRSC07867,,,,6210,5.08e5,inactive
CG9269,DRSC16465,,,,6392,4.28e5,inactive
bbg,DRSC11077,,,,7514,4.64e5,inactive
bbg,DRSC11079,,,,8533,3.53e5,inactive
CG34338,DRSC17535,,,,6051,3.78e5,inactive
CG5421,DRSC02858,,,,7435,4.67e5,inactive
Taldo,DRSC04320,,,,64303,1.17e6,inactive
Cadps,DRSC21057,,,,5451,3.99e5,inactive
Cadps,DRSC22200,,,,8930,5.55e5,inactive
Rab2,DRSC05017,,,,12704,1.49e6,inactive
mRpS10,DRSC15557,,,,6572,4.14e5,inactive

Targets above whose target name begins with H or h:
gene knocked down,dsRNA,siRNA reporter hit score,stable siRNA reporter change,miRNA reporter change,"stable assay Renilla, run 1 (luminescence)","stable assay firefly, run 1 (luminescence)",Call
htt,DRSC16970,,,,6880,3.54e5,inactive
hid,DRSC11316,,,,6796,3.90e5,inactive

Next records:
gene knocked down,dsRNA,siRNA reporter hit score,stable siRNA reporter change,miRNA reporter change,"stable assay Renilla, run 1 (luminescence)","stable assay firefly, run 1 (luminescence)",Call
cv-d,DRSC16522,,reporter ratio lowered past the hit cutoff,,7559,4.91e5,inactive
cv-d,DRSC16524,,,,6926,3.47e5,inactive
cv-d,DRSC16526,,,,6787,3.25e5,inactive
CG3894,DRSC01762,,,,5432,3.93e5,inactive
CG3894,DRSC04012,,,,4939,5.59e5,inactive
CG3894,DRSC04429,,,,4483,3.89e5,inactive
rempA,DRSC00327,,,,7207,4.15e5,inactive
CenB1A,DRSC16923,,,,4823,4.15e5,inactive
Rai1,DRSC20157,,,,4472,3.78e5,inactive
CG5255,DRSC15754,,,,6163,3.03e5,inactive
sun,DRSC20140,,,,4511,4.70e5,inactive
epsilonCOP,DRSC02003,,,,9845,1.34e6,inactive
Zaf1,DRSC16121,,,,6086,2.86e5,inactive
CG4306,DRSC10409,,,,7528,4.16e5,inactive
CG2818,DRSC00540,,,,66716,1.96e5,inactive
CG30412,DRSC04564,,,,42814,1.13e6,inactive
Polr2J,DRSC02995,,,,6883,3.91e5,inactive
CG10211,DRSC02027,,,,7937,5.71e5,inactive
IFT54,DRSC15469,,,,6479,4.65e5,inactive
CG5280,DRSC10498,,,,5663,3.47e5,inactive
CG5280,DRSC22835,,reporter ratio raised past the hit cutoff,,2283,76190,inactive
Cpr72Ea,DRSC10451,,,,8550,2.98e5,inactive
CG17824 (retired record),DRSC10288,,,,6238,3.86e5,inactive
hoe2,DRSC00459,,,,7372,3.32e5,inactive
CkIIbeta,DRSC20230,,reporter ratio lowered past the hit cutoff,,3732,5.19e5,active
MED31,DRSC12142,,,,6591,2.04e5,inactive
CG3253,DRSC04350,,,,9247,1.76e6,inactive
SmydA-7,DRSC07340,,,,9001,3.18e5,inactive
Wnt5,DRSC20300,,,,5782,4.53e5,inactive
CG1529,DRSC20515,,,,4367,4.55e5,inactive
EMC2B + EMC2A,DRSC15241,,,,5859,5.00e5,inactive
Prosbeta2,DRSC11257,-3,,,7918,2.40e5,inactive
CG14342,DRSC00372,,,,7519,3.68e5,inactive
Sdhaf3,DRSC15020,,,,7176,4.78e5,inactive
AANATL7,DRSC18616,,,,5795,3.56e5,inactive
CG8924,DRSC20122,,,,6683,3.39e5,inactive
CG8924,DRSC23027,,,,5460,3.76e5,inactive
Hmbs,DRSC08632,,,,9144,3.70e5,inactive
CG15717,DRSC19684,,,,6434,5.80e5,inactive
